{"source": "PubChem BioAssay AID504744, Drosophila RNAi Screening Center – 2011", "test": "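Uncover factors, including feedback loops, that control dAkt activation in fly cells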 (primary screen)", "cell system": "Drosophila Kc167 cells", "reagents": "long dsRNA against Drosophila genes, 250 ng dsRNA per well of a 384-well plate", "timing": "3 days of knock-down, then overnight serum-free starvation before stimulation", "challenge": "bovine insulin at 387 nM for 10 minutes after 12 h without serum", "measurement": "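Per-well phospho-dAkt level from an in-cell fluorescent antibody stain, divided by a DNA-dye signal; log2 residuals turned into z-scores that take cell number into account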", "active means": "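Under insulin, a gene counts as a hit if the average z-score of two replicates lies above 2.5 or below -2.5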", "note": "The screen tested about 23,000 reagents; below is an unselected part of those with a known target gene and a result. Over the whole deposit, 98 (0.43%) are marked active. 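Only hit calls are given; the phospho-dAkt signals, z-scores and hit direction were not deposited.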 A plus sign joins genes that one reagent is predicted to hit."}
The opening 8 entries, to show the layout:
{"target gene":"Aladin","dsRNA":"DRSC18121","activity call":"inactive"}
{"target gene":"TfIIS (RNA polymerase II elongation factor)","dsRNA":"DRSC03455","activity call":"inactive"}
{"target gene":"l(3)neo43 (lethal (3) neo43)","dsRNA":"DRSC14988","activity call":"inactive"}
{"target gene":"CG11374","dsRNA":"DRSC00306","activity call":"inactive"}
{"target gene":"CG13561","dsRNA":"DRSC04199","activity call":"inactive"}
{"target gene":"milt (milton)","dsRNA":"DRSC00965","activity call":"inactive"}
{"target gene":"milt (milton)","dsRNA":"DRSC00966","activity call":"inactive"}
{"target gene":"milt (milton)","dsRNA":"DRSC02281","activity call":"inactive"}

The listing, repeating the preview:
{"target gene":"Aladin","dsRNA":"DRSC18121","activity call":"inactive"}
{"target gene":"TfIIS (RNA polymerase II elongation factor)","dsRNA":"DRSC03455","activity call":"inactive"}
{"target gene":"l(3)neo43 (lethal (3) neo43)","dsRNA":"DRSC14988","activity call":"inactive"}
{"target gene":"CG11374","dsRNA":"DRSC00306","activity call":"inactive"}
{"target gene":"CG13561","dsRNA":"DRSC04199","activity call":"inactive"}
{"target gene":"milt (milton)","dsRNA":"DRSC00965","activity call":"inactive"}
{"target gene":"milt (milton)","dsRNA":"DRSC00966","activity call":"inactive"}
{"target gene":"milt (milton)","dsRNA":"DRSC02281","activity call":"inactive"}
{"target gene":"Zfrp8 (Zinc finger protein RP-8)","dsRNA":"DRSC04352","activity call":"inactive"}
{"target gene":"CG14854","dsRNA":"DRSC14978","activity call":"inactive"}
{"target gene":"Etl1","dsRNA":"DRSC02911","activity call":"inactive"}
{"target gene":"CG15882","dsRNA":"DRSC19735","activity call":"inactive"}
{"target gene":"bmm (brummer)","dsRNA":"DRSC10502","activity call":"inactive"}
{"target gene":"NO66 (Nucleolar protein 66)","dsRNA":"DRSC18252","activity call":"inactive"}
{"target gene":"sona (sol narae)","dsRNA":"DRSC04089","activity call":"active"}
{"target gene":"sona (sol narae)","dsRNA":"DRSC04574","activity call":"inactive"}
{"target gene":"sona (sol narae)","dsRNA":"DRSC04575","activity call":"inactive"}
{"target gene":"Stam (Signal transducing adaptor molecule)","dsRNA":"DRSC03444","activity call":"inactive"}
{"target gene":"CG4982","dsRNA":"DRSC10465","activity call":"inactive"}
{"target gene":"CG14086","dsRNA":"DRSC10090","activity call":"inactive"}
{"target gene":"CG30036","dsRNA":"DRSC21334","activity call":"inactive"}
{"target gene":"Spn75F (Serpin 75F)","dsRNA":"DRSC09589","activity call":"inactive"}
{"target gene":"Pur-alpha (Purine-rich binding protein-alpha)","dsRNA":"DRSC17166","activity call":"inactive"}
{"target gene":"CG32983","dsRNA":"DRSC22367","activity call":"inactive"}
{"target gene":"alpha-Catr (alpha-catenin related)","dsRNA":"DRSC04669","activity call":"inactive"}
{"target gene":"GstD5 (Glutathione S transferase D5)","dsRNA":"DRSC16686","activity call":"inactive"}
{"target gene":"CG9150","dsRNA":"DRSC03148","activity call":"inactive"}
{"target gene":"CG15170","dsRNA":"DRSC02471","activity call":"inactive"}
{"target gene":"Aatf (Apoptosis antagonizing transcription factor)","dsRNA":"DRSC02131","activity call":"inactive"}
{"target gene":"CrebA (Cyclic-AMP response element binding protein A)","dsRNA":"DRSC11122","activity call":"inactive"}
{"target gene":"swm (second mitotic wave missing)","dsRNA":"DRSC02012","activity call":"inactive"}
{"target gene":"swm (second mitotic wave missing)","dsRNA":"DRSC21831","activity call":"inactive"}
{"target gene":"CG32152","dsRNA":"DRSC22906","activity call":"inactive"}
{"target gene":"CG13747","dsRNA":"DRSC06418","activity call":"inactive"}
{"target gene":"CG10527","dsRNA":"DRSC04078","activity call":"inactive"}
{"target gene":"CG31612","dsRNA":"DRSC03697","activity call":"inactive"}
{"target gene":"CG31612","dsRNA":"DRSC03698","activity call":"inactive"}
{"target gene":"CG2663","dsRNA":"DRSC12314","activity call":"inactive"}
{"target gene":"IFT43 (Intraflagellar transport 43)","dsRNA":"DRSC02892","activity call":"inactive"}
{"target gene":"CG14535","dsRNA":"DRSC02393","activity call":"inactive"}
{"target gene":"RpL18 (Ribosomal protein L18)","dsRNA":"DRSC11016","activity call":"inactive"}
{"target gene":"RpL18 (Ribosomal protein L18)","dsRNA":"DRSC22323","activity call":"inactive"}
{"target gene":"Rpn9 (Regulatory particle non-ATPase 9)","dsRNA":"DRSC16840","activity call":"inactive"}
{"target gene":"CG12516","dsRNA":"DRSC14524","activity call":"inactive"}
{"target gene":"CG13838","dsRNA":"DRSC14688","activity call":"inactive"}
{"target gene":"ClC-c (Chloride channel-c)","dsRNA":"DRSC10499","activity call":"inactive"}
{"target gene":"AlkB","dsRNA":"DRSC19115","activity call":"inactive"}
{"target gene":"CG1544","dsRNA":"DRSC15036","activity call":"inactive"}
{"target gene":"RpS6 (Ribosomal protein S6)","dsRNA":"DRSC18712","activity call":"inactive"}
{"target gene":"kat-60L1 (katanin p60-like 1)","dsRNA":"DRSC12184","activity call":"inactive"}
{"target gene":"CG17187","dsRNA":"DRSC15181","activity call":"inactive"}
{"target gene":"pyd3","dsRNA":"DRSC15459","activity call":"inactive"}
{"target gene":"pyd3","dsRNA":"DRSC21640","activity call":"inactive"}
{"target gene":"Pdk1 (Phosphoinositide-dependent kinase 1)","dsRNA":"DRSC08682","activity call":"active"}
{"target gene":"Klc (Kinesin light chain)","dsRNA":"DRSC11203","activity call":"inactive"}
{"target gene":"CaBP1 (calcium-binding protein 1)","dsRNA":"DRSC01984","activity call":"inactive"}
{"target gene":"CG4332","dsRNA":"DRSC19890","activity call":"inactive"}
{"target gene":"CG9467","dsRNA":"DRSC16498","activity call":"inactive"}
{"target gene":"CG34160","dsRNA":"DRSC01131","activity call":"inactive"}
{"target gene":"CG31300","dsRNA":"DRSC14657","activity call":"inactive"}
{"target gene":"fz3 (frizzled 3)","dsRNA":"DRSC18779","activity call":"inactive"}
{"target gene":"Paip1 (Poly(A) binding protein interacting protein 1)","dsRNA":"DRSC07302","activity call":"inactive"}
{"target gene":"DMAP1 (DNA methyltransferase 1 associated protein 1)","dsRNA":"DRSC06044","activity call":"inactive"}
{"target gene":"CG33964 + CG13175","dsRNA":"DRSC06300","activity call":"inactive"}
{"target gene":"CG33964 + CG13175","dsRNA":"DRSC06301","activity call":"inactive"}
{"target gene":"CG33964 + CG13175","dsRNA":"DRSC07184","activity call":"inactive"}
{"target gene":"CG4712","dsRNA":"DRSC06882","activity call":"inactive"}
{"target gene":"CG12078","dsRNA":"DRSC08242","activity call":"inactive"}
{"target gene":"SC35 (SR family splicing factor SC35)","dsRNA":"DRSC02502","activity call":"inactive"}
{"target gene":"SC35 (SR family splicing factor SC35)","dsRNA":"DRSC03425","activity call":"inactive"}
{"target gene":"ppk30 (pickpocket 30)","dsRNA":"DRSC15302","activity call":"inactive"}
{"target gene":"CR10032 (pseudo)","dsRNA":"DRSC12499","activity call":"inactive"}
{"target gene":"CG16813","dsRNA":"DRSC02520","activity call":"inactive"}
